These results are taken from the supplement of paper PMC10849652.

Chains of the proteins cited; added tags and fusions are not shown. Lines headed by an entry give the natural chain unless they say otherwise; changes in a name come on top.
UniProt P35790, whole entry, looked up: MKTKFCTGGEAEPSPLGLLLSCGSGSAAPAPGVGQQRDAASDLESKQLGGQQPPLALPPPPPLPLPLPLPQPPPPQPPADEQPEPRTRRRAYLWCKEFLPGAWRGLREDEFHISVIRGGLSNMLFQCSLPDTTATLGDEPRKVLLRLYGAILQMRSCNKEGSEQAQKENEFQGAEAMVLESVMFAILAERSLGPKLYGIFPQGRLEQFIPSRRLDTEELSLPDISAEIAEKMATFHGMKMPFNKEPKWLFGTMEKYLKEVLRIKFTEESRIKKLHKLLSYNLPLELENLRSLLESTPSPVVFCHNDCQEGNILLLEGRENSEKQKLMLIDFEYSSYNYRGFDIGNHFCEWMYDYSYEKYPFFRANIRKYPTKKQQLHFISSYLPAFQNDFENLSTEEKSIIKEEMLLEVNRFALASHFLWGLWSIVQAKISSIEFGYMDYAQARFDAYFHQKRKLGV
UniProt Q8N4Q1: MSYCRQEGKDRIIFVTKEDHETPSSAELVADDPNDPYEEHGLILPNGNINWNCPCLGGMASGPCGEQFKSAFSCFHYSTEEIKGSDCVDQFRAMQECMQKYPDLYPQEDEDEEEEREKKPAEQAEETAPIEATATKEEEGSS
UniProt Q9BQ75: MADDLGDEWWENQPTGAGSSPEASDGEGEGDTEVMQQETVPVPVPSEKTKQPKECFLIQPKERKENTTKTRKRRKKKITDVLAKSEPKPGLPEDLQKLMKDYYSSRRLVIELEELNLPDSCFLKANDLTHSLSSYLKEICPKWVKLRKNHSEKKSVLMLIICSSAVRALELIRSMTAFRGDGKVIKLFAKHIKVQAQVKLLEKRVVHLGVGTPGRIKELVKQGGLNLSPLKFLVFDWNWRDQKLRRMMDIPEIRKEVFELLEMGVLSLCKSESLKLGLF
UniProt Q9BY43: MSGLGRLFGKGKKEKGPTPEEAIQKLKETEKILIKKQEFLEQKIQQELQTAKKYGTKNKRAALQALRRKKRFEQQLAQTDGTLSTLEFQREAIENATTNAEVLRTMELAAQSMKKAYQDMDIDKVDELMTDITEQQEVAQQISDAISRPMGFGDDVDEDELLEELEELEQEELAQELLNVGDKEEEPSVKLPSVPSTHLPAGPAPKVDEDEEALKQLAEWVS
UniProt Q9NZZ3: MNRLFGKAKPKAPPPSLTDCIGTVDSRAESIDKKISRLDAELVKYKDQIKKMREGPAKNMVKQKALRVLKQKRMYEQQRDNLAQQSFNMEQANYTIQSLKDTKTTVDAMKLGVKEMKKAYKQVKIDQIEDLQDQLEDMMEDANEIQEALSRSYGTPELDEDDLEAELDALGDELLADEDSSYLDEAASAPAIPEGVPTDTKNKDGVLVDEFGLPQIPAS
UniProt Q7Z7K0: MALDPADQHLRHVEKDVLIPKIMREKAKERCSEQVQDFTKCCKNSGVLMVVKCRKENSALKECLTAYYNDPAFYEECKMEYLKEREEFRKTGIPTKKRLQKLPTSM
UniProt Q96MX0: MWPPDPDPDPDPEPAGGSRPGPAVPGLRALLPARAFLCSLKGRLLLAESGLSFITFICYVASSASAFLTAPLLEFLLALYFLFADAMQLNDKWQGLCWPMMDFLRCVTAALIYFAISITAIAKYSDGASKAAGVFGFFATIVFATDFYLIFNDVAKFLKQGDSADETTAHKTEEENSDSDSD
UniProt Q9Y3D0: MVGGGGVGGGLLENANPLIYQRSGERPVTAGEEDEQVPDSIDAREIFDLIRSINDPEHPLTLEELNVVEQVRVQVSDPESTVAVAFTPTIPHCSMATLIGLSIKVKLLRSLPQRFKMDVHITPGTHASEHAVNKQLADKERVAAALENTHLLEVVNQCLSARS
UniProt Q9ULV3: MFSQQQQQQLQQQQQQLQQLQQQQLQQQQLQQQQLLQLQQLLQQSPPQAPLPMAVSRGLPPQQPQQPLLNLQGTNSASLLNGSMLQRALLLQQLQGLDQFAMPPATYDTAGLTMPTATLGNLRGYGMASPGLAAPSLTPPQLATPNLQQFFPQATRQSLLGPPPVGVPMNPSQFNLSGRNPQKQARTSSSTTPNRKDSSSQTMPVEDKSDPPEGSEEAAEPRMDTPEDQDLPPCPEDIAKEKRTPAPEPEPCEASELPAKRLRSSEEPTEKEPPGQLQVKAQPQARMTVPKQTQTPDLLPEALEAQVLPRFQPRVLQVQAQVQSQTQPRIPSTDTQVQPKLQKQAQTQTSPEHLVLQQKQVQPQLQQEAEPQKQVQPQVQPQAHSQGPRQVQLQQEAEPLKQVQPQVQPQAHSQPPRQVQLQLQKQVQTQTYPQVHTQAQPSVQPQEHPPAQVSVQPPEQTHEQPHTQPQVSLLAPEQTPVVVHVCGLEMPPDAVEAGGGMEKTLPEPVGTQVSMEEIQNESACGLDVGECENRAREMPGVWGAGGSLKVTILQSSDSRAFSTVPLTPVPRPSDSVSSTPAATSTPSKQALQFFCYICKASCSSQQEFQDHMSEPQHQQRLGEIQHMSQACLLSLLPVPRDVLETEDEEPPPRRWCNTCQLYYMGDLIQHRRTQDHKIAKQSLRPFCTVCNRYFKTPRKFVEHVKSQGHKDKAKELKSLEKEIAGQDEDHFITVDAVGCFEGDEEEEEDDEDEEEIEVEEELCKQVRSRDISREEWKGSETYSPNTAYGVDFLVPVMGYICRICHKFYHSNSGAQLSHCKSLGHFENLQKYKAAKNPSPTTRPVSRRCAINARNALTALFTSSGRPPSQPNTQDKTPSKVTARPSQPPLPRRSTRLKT
UniProt O14646: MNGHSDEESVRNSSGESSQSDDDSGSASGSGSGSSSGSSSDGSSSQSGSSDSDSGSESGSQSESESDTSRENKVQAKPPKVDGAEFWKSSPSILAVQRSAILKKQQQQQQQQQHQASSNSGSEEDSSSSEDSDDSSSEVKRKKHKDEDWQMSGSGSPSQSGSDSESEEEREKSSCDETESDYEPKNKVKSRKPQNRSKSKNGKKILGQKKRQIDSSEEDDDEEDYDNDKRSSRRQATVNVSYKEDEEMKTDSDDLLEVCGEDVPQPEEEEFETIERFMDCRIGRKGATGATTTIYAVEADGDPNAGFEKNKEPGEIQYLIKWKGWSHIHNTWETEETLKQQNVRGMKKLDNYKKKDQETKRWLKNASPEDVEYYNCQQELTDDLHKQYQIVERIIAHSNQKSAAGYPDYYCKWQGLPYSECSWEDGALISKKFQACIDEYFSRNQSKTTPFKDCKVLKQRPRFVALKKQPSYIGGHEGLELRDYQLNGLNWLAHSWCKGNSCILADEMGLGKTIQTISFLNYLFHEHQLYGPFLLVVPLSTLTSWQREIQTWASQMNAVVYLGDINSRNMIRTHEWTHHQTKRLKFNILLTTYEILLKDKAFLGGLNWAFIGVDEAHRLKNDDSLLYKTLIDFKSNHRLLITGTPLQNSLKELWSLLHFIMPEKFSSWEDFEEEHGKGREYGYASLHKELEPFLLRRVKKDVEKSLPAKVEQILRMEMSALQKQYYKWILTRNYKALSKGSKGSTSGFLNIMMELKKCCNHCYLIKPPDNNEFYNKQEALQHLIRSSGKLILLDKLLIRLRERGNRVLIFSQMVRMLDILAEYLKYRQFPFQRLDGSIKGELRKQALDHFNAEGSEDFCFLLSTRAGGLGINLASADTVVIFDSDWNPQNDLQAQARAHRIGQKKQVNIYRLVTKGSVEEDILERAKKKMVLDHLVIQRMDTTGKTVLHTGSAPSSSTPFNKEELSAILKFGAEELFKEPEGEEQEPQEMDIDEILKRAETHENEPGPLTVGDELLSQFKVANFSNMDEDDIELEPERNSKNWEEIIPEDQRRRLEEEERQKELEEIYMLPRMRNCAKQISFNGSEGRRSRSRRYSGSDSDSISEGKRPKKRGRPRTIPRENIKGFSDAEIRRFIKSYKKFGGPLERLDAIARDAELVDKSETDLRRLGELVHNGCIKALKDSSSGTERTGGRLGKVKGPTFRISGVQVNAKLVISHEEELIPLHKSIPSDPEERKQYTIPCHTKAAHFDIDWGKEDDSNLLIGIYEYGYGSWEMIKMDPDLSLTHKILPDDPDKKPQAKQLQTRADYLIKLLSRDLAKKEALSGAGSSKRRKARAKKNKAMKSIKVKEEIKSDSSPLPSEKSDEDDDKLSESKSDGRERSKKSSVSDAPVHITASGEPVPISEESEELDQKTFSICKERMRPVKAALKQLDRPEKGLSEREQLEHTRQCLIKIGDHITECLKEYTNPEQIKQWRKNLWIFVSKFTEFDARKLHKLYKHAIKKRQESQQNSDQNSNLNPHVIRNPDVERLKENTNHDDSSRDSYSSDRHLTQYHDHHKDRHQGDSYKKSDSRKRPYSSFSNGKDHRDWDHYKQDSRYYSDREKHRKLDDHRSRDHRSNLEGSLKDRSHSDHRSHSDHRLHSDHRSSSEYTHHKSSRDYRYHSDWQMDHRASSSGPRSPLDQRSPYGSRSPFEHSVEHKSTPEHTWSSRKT
UniProt Q8WUH1: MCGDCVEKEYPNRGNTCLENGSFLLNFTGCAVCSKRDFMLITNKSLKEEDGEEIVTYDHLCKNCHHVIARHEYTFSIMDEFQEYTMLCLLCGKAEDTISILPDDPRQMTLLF
UniProt Q14008: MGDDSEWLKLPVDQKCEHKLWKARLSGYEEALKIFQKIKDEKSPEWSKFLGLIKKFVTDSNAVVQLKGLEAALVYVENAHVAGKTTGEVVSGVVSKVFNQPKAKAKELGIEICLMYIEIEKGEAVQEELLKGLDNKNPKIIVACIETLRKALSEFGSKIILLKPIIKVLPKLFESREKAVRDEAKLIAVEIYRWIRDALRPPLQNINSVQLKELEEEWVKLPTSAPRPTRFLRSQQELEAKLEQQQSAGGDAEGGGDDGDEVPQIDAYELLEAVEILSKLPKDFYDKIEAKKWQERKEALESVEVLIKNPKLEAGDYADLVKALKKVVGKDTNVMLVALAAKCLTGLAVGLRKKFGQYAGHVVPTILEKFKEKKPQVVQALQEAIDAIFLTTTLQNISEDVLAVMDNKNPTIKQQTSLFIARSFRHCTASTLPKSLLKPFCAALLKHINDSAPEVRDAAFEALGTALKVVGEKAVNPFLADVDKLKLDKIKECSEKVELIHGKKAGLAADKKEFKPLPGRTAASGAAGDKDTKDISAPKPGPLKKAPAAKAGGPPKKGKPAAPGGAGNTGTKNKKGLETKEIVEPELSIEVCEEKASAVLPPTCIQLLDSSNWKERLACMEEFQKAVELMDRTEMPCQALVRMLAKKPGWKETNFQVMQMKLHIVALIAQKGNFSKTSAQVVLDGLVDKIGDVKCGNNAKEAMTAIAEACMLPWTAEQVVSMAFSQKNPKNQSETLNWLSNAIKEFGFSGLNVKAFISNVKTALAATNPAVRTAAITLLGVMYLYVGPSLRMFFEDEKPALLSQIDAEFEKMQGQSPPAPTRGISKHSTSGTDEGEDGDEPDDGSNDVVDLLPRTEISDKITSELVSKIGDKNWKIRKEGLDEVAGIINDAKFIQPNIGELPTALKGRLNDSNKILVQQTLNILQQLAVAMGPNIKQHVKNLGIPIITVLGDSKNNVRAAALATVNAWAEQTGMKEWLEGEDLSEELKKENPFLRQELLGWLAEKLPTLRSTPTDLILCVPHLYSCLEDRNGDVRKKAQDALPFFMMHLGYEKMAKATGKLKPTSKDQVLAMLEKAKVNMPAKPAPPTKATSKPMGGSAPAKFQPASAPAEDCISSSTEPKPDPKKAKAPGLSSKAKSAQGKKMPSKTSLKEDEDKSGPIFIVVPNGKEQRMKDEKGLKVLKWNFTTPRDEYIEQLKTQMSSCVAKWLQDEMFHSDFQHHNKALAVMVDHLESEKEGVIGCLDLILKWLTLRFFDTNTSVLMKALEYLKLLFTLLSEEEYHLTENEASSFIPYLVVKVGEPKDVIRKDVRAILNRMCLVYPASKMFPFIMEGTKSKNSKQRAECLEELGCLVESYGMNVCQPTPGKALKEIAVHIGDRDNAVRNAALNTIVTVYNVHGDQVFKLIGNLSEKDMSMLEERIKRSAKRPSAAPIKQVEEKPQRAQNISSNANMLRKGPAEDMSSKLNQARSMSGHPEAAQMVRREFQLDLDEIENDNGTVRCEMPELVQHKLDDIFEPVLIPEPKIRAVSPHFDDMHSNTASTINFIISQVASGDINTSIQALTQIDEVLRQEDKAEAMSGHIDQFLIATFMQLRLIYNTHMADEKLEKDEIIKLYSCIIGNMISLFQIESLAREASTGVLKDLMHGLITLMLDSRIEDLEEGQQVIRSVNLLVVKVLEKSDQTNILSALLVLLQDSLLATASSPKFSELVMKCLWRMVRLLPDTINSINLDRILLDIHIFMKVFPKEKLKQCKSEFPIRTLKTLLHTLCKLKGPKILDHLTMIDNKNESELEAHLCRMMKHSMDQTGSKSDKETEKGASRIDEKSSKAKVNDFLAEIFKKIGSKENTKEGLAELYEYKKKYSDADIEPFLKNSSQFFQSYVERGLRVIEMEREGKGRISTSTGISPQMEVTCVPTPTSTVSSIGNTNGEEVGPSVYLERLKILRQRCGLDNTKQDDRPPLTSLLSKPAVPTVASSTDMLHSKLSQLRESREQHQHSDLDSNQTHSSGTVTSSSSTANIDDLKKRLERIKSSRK

The other results are listed elsewhere or left out.

Compound in the first assay: C/C(=N\NC(=O)C1=CC(=CC=C1)S(=O)(=O)N2CCOCC2)/C3=C(C=CC(=C3)Cl)O
In words: log2 fold change, soluble protein after heating vs DMSO (PISA); higher = thermal stabilisation; K562 lysate, 10 uM; active = over 0.2 and 3.5 SD of the protein, either way, in both replicates (recomputed). The gist of the method: (§1)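 Following dounce homogenisation of K562 pellets in PBS pH 7.4 with 1 mM MgCl2, crude extract at 1 mg/mL protein was incubated for 30 min with 10 μM compound. Aliquots were then heated for 3 min over 48°C-58°C and pooled, NP-40 was added to 0.5% at 4°C, and soluble protein was recovered as the supernatant at 21,000xg for 90 min. Channel-sum-equalised TMTpro 16plex LC-MS/MS quantified this protein. Each value, from duplicates, is a log-two fold change in thermal stability relative to solvent controls.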
With CIT isoform 4 (UniProt O14578), the log2 fold change was inactive: -0.032.

Regarding CHEK1 (UniProt O14757), the log2 fold change was inactive: -0.057.

In the case of CHCHD2P9 (UniProt Q5T1J5), the log2 fold change is inactive: -0.536.

As for CIRBP (UniProt Q14011), the log2 fold change was inactive: -0.077.

For CMIP (UniProt Q8IY22), the log2 fold change was inactive: 0.05.

In the case of CHKA (UniProt P35790), the log2 fold change is inactive: -0.011.

On to CHCHD4 isoform 2 (UniProt Q8N4Q1), for which the log2 fold change is inactive: -0.06.

Regarding CHM (UniProt P24386), the log2 fold change is inactive: 0.012.

In the case of CKM (UniProt P06732), the log2 fold change was inactive: -0.167.

In the case of CHID1 (UniProt Q9BWS9), the log2 fold change is inactive: -0.015.

Take CMSS1 (UniProt Q9BQ75): the log2 fold change was inactive: 0.018.

Take CHMP4A isoform 2 (UniProt Q9BY43): the log2 fold change is inactive: 0.008.

Turning to CNBP isoform 4 (UniProt P62633), the log2 fold change was inactive: -0.058.

Regarding CHMP5 (UniProt Q9NZZ3), the log2 fold change was inactive: -0.048.

For CMC1 (UniProt Q7Z7K0), the log2 fold change was inactive: -0.042.

As to CHCHD3 (UniProt Q9NX63), the log2 fold change was inactive: 0.021.

As for CMTM3 (UniProt Q96MX0), the log2 fold change was inactive: -0.112.

In the case of CIAO2B (UniProt Q9Y3D0), the log2 fold change is inactive: 0.014.

As for CKMT2 (UniProt P17540), the log2 fold change was inactive: -0.073.

Regarding CHRAC1 (UniProt Q9NRG0), the log2 fold change is inactive: -0.164.

In the case of CISD2 (UniProt Q8N5K1), the log2 fold change was inactive: -0.062.

As for CIZ1 (UniProt Q9ULV3), the log2 fold change was inactive: -0.027.

Turning to CHD1 (UniProt O14646), the log2 fold change is inactive: 0.044.

As for CHURC1 isoform 2 (UniProt Q8WUH1), the log2 fold change was inactive: -0.13.

For the target CIC (UniProt I3L2J0), the log2 fold change is inactive: -0.248.

With CKAP5 (UniProt Q14008), the log2 fold change was inactive: 0.003.

CHD5 (UniProt Q8TDI0): the log2 fold change is inactive: -0.004.

As for CHMP7 (UniProt Q8WUX9), the log2 fold change was inactive: 0.01.

Turning to CHD7 (UniProt Q9P2D1), the log2 fold change was inactive: -0.072.

As to CHD1L (UniProt Q86WJ1), the log2 fold change is inactive: 0.007.

With CHD3 isoform 3 (UniProt Q12873), the log2 fold change is inactive: -0.022.

CHKB (UniProt Q9Y259): the log2 fold change is inactive: 0.024.

For the target CHUK (UniProt O15111), the log2 fold change is inactive: 0.114.

Compound in a further assay: C1=CC(=CC=C1C2=NC3=C(N2)C=C(C=C3)C(=O)N)OC4=CC=C(C=C4)Cl
The assay is described as above. In outline:
as §1
CIT isoform 4 (UniProt O14578): the log2 fold change is inactive: 0.006.

Turning to CHEK1 (UniProt O14757), the log2 fold change was inactive: 0.

With CHCHD2P9 (UniProt Q5T1J5), the log2 fold change was inactive: 0.07.

Regarding CIRBP (UniProt Q14011), the log2 fold change was inactive: 0.031.

In the case of CMIP (UniProt Q8IY22), the log2 fold change is inactive: -0.008.

CHKA (UniProt P35790): the log2 fold change is inactive: 0.021.

As for CHCHD4 isoform 2 (UniProt Q8N4Q1), the log2 fold change was inactive: -0.068.

Consider CHM (UniProt P24386), for which the log2 fold change is inactive: 0.063.

As to CKM (UniProt P06732), the log2 fold change is inactive: 0.003.

CHID1 (UniProt Q9BWS9): the log2 fold change was inactive: 0.033.

For the target CMSS1 (UniProt Q9BQ75), the log2 fold change was inactive: -0.031.

Consider CHMP4A isoform 2 (UniProt Q9BY43), for which the log2 fold change was inactive: 0.018.

As to CNBP isoform 4 (UniProt P62633), the log2 fold change is inactive: 0.028.

Turning to CHMP5 (UniProt Q9NZZ3), the log2 fold change was inactive: 0.006.

CMC1 (UniProt Q7Z7K0): the log2 fold change is inactive: 0.049.

Take CHCHD3 (UniProt Q9NX63): the log2 fold change is inactive: -0.091.

Take CMTM3 (UniProt Q96MX0): the log2 fold change is inactive: 0.053.

For the target CIAO2B (UniProt Q9Y3D0), the log2 fold change is inactive: -0.014.

With CKMT2 (UniProt P17540), the log2 fold change is inactive: 0.

On to CHRAC1 (UniProt Q9NRG0), for which the log2 fold change was inactive: -0.058.

CISD2 (UniProt Q8N5K1): the log2 fold change was inactive: 0.004.

Consider CIZ1 (UniProt Q9ULV3), for which the log2 fold change is inactive: 0.091.

Take CHD1 (UniProt O14646): the log2 fold change is inactive: 0.006.

As to CHURC1 isoform 2 (UniProt Q8WUH1), the log2 fold change is inactive: -0.021.

On to CIC (UniProt I3L2J0), for which the log2 fold change was inactive: 0.079.

Consider CKAP5 (UniProt Q14008), for which the log2 fold change was inactive: 0.005.

Consider CHD5 (UniProt Q8TDI0), for which the log2 fold change is inactive: -0.031.

With CHMP7 (UniProt Q8WUX9), the log2 fold change is inactive: 0.006.

On to CHD7 (UniProt Q9P2D1), for which the log2 fold change is inactive: -0.036.

As to CHD1L (UniProt Q86WJ1), the log2 fold change is inactive: -0.028.

Regarding CHD3 isoform 3 (UniProt Q12873), the log2 fold change is inactive: -0.025.

Turning to CHKB (UniProt Q9Y259), the log2 fold change was inactive: 0.022.

For CHUK (UniProt O15111), the log2 fold change was inactive: -0.076.

Compound in another assay: C1=CC2=C(C=CC(=C2)/C=C\3/C(=O)NC(=NCC4=CC=CS4)S3)N=C1
Described as above. In outline:
as §1
For the target CIT isoform 4 (UniProt O14578), the log2 fold change was inactive: 0.043.

Consider CHEK1 (UniProt O14757), for which the log2 fold change was active: 0.27.

In the case of CHCHD2P9 (UniProt Q5T1J5), the log2 fold change is inactive: -0.062.

For CIRBP (UniProt Q14011), the log2 fold change was inactive: 0.03.

For the target CMIP (UniProt Q8IY22), the log2 fold change was inactive: 0.055.

Turning to CHKA (UniProt P35790), the log2 fold change is inactive: -0.003.

Turning to CHCHD4 isoform 2 (UniProt Q8N4Q1), the log2 fold change was inactive: -0.028.

For CHM (UniProt P24386), the log2 fold change is inactive: -0.121.

With CKM (UniProt P06732), the log2 fold change was inactive: 0.023.

In the case of CHID1 (UniProt Q9BWS9), the log2 fold change is inactive: 0.01.

For CMSS1 (UniProt Q9BQ75), the log2 fold change is inactive: 0.011.

As for CHMP4A isoform 2 (UniProt Q9BY43), the log2 fold change is inactive: -0.01.

Consider CNBP isoform 4 (UniProt P62633), for which the log2 fold change was inactive: 0.032.

For the target CHMP5 (UniProt Q9NZZ3), the log2 fold change was inactive: 0.063.

Turning to CMC1 (UniProt Q7Z7K0), the log2 fold change was inactive: 0.053.

Regarding CHCHD3 (UniProt Q9NX63), the log2 fold change is inactive: -0.01.

Turning to CMTM3 (UniProt Q96MX0), the log2 fold change is inactive: -0.084.

Regarding CIAO2B (UniProt Q9Y3D0), the log2 fold change is inactive: 0.085.

Take CKMT2 (UniProt P17540): the log2 fold change was inactive: 0.014.

With CHRAC1 (UniProt Q9NRG0), the log2 fold change was inactive: 0.02.

Consider CISD2 (UniProt Q8N5K1), for which the log2 fold change is inactive: -0.009.

Regarding CIZ1 (UniProt Q9ULV3), the log2 fold change was inactive: -0.045.

Consider CHD1 (UniProt O14646), for which the log2 fold change is inactive: 0.005.

Take CHURC1 isoform 2 (UniProt Q8WUH1): the log2 fold change is inactive: -0.003.

CIC (UniProt I3L2J0): the log2 fold change is inactive: 0.122.

As for CKAP5 (UniProt Q14008), the log2 fold change was inactive: -0.01.

CHD5 (UniProt Q8TDI0): the log2 fold change was inactive: 0.056.

With CHMP7 (UniProt Q8WUX9), the log2 fold change was inactive: -0.017.

As to CHD7 (UniProt Q9P2D1), the log2 fold change is inactive: -0.028.

Regarding CHD1L (UniProt Q86WJ1), the log2 fold change is inactive: 0.036.

With CHD3 isoform 3 (UniProt Q12873), the log2 fold change was inactive: -0.01.

For CHKB (UniProt Q9Y259), the log2 fold change was inactive: -0.044.

In the case of CHUK (UniProt O15111), the log2 fold change is inactive: 0.01.
